From the supplement of paper PMC10849652
The list shows a part of the results.

Protein sequences, listed by entry. Tags and fused reporters are not part of them. Lines headed by an entry give the natural chain unless they say otherwise; changes in a name come on top.
UniProt P23276: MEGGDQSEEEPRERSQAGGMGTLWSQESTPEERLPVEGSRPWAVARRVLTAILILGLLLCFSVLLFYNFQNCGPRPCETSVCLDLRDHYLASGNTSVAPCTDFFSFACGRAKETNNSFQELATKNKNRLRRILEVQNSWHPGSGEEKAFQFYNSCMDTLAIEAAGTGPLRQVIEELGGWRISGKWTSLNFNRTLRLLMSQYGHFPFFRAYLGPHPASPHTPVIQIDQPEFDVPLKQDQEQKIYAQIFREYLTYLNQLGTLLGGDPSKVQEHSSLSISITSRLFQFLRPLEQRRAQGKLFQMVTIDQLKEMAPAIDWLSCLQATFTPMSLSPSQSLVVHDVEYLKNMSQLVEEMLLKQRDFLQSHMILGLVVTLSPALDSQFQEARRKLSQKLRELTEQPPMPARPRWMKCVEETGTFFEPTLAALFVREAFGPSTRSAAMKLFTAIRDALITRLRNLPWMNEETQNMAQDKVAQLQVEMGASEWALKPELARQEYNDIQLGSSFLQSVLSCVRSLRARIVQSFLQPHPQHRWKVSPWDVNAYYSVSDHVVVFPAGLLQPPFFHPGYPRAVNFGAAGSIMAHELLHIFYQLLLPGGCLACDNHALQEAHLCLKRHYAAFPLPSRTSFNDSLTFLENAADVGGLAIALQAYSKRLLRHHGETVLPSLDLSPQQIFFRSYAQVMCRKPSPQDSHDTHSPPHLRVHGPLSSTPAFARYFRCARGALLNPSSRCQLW
UniProt Q9BW62: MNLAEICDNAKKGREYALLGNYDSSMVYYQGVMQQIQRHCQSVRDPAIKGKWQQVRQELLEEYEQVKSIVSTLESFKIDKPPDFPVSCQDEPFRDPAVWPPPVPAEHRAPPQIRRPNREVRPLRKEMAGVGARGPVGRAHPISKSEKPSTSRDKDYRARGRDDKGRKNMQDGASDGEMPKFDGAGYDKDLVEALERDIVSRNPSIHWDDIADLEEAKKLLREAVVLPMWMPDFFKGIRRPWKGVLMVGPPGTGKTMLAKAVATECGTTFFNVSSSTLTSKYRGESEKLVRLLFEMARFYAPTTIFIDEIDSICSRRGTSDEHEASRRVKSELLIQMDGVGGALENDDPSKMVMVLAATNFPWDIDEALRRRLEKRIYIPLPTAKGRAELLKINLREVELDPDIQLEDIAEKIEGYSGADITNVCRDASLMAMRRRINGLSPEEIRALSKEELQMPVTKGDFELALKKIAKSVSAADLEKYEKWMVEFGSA
UniProt Q7Z4S6: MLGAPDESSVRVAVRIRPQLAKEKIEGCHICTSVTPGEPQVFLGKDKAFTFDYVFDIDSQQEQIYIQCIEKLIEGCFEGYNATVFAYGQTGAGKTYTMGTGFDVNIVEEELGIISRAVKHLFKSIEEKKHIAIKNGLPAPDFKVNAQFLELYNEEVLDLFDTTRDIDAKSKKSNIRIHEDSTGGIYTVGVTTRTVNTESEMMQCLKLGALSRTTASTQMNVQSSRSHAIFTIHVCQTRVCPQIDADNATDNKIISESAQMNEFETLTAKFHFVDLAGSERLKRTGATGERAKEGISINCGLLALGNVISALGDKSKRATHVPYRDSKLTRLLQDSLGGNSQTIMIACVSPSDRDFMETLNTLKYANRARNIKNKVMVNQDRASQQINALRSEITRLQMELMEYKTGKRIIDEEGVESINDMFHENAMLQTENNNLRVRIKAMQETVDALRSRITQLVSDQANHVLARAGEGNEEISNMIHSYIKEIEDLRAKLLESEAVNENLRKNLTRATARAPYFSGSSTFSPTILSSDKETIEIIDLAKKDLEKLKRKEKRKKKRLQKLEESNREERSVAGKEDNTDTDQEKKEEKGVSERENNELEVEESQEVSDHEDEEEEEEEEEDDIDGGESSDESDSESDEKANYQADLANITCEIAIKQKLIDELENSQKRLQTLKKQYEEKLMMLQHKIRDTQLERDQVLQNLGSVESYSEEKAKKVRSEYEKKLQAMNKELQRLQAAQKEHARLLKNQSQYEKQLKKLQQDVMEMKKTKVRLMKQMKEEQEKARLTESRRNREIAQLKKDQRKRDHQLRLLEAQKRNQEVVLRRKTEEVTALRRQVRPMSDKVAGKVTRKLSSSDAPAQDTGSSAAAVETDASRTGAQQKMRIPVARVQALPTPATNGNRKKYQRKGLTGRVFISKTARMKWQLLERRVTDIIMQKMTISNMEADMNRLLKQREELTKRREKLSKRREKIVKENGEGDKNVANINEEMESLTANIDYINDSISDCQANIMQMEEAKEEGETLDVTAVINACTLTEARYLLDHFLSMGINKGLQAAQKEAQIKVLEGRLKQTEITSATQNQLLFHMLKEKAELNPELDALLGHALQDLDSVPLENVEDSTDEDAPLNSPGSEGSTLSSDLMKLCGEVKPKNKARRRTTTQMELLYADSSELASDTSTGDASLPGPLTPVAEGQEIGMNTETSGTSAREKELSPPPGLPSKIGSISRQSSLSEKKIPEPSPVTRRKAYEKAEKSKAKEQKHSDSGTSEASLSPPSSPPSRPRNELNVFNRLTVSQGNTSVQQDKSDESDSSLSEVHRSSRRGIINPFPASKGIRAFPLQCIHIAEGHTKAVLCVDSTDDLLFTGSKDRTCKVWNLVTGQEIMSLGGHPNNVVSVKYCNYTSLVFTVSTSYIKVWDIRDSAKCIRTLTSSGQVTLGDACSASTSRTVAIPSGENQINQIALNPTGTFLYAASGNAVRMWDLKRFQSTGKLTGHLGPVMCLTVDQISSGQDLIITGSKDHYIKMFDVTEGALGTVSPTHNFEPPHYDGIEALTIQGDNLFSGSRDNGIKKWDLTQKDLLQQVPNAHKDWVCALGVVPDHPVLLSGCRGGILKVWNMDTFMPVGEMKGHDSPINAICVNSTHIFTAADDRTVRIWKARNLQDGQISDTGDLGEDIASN
UniProt Q8N5M9: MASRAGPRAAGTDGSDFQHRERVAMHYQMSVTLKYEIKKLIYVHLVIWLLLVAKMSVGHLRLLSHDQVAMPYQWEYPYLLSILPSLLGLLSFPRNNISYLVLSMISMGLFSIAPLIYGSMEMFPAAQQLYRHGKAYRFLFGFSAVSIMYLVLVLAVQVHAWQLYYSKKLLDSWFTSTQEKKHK
UniProt Q07666, whole entry, looked up: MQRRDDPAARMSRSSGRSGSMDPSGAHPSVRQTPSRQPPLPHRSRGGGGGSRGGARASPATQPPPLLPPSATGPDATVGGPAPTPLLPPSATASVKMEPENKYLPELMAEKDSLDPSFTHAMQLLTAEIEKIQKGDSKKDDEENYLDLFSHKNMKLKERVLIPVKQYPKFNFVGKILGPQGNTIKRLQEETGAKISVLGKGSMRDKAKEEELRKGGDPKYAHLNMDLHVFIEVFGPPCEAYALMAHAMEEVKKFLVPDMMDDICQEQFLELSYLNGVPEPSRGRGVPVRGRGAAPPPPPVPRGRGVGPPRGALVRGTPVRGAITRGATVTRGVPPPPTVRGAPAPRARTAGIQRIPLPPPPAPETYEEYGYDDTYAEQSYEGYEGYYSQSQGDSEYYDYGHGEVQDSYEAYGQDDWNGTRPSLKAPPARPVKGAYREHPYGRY
UniProt Q9NVR0: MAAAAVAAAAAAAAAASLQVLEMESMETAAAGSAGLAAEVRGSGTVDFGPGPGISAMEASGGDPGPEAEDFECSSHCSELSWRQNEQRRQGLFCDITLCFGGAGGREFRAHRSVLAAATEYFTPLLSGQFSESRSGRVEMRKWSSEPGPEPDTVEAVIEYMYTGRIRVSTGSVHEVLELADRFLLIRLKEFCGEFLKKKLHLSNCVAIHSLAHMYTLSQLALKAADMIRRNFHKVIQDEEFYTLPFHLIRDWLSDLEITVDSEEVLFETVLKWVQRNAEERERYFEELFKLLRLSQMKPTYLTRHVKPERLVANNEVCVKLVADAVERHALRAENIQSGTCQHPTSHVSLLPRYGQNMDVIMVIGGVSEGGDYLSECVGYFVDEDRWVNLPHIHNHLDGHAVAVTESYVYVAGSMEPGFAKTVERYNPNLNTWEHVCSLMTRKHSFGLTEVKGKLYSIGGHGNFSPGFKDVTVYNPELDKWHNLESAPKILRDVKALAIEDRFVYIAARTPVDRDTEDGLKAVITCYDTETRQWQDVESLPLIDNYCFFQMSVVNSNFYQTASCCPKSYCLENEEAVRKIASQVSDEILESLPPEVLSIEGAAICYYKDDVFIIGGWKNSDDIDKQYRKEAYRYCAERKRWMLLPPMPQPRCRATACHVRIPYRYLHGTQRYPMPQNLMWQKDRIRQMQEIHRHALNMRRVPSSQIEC
UniProt Q8IWB1: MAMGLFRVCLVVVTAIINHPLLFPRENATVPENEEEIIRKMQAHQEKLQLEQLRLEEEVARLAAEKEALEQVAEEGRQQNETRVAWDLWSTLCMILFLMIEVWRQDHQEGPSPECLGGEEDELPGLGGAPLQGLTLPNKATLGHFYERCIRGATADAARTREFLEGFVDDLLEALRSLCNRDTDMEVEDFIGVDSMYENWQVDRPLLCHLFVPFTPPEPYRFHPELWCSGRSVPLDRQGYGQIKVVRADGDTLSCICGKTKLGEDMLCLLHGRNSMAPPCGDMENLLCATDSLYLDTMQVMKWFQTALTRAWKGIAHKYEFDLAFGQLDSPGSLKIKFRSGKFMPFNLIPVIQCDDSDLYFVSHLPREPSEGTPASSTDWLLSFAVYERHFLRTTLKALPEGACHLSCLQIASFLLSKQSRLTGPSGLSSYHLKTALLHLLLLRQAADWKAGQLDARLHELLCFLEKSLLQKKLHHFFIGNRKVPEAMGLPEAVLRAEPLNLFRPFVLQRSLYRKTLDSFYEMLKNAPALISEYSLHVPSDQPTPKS
UniProt Q9H7Z6: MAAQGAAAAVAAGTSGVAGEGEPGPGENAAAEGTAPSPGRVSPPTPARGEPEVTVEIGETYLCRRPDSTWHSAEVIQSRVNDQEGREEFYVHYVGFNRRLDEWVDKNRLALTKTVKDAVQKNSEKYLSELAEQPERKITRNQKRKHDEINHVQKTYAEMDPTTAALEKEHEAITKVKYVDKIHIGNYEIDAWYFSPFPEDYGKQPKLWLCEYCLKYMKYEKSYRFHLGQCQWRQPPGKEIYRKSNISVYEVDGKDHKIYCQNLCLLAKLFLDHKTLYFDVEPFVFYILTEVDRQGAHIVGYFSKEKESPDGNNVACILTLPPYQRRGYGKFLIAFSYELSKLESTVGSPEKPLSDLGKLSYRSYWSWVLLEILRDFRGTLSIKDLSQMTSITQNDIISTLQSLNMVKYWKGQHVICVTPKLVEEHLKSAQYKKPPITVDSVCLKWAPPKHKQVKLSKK
UniProt Q5JYT7: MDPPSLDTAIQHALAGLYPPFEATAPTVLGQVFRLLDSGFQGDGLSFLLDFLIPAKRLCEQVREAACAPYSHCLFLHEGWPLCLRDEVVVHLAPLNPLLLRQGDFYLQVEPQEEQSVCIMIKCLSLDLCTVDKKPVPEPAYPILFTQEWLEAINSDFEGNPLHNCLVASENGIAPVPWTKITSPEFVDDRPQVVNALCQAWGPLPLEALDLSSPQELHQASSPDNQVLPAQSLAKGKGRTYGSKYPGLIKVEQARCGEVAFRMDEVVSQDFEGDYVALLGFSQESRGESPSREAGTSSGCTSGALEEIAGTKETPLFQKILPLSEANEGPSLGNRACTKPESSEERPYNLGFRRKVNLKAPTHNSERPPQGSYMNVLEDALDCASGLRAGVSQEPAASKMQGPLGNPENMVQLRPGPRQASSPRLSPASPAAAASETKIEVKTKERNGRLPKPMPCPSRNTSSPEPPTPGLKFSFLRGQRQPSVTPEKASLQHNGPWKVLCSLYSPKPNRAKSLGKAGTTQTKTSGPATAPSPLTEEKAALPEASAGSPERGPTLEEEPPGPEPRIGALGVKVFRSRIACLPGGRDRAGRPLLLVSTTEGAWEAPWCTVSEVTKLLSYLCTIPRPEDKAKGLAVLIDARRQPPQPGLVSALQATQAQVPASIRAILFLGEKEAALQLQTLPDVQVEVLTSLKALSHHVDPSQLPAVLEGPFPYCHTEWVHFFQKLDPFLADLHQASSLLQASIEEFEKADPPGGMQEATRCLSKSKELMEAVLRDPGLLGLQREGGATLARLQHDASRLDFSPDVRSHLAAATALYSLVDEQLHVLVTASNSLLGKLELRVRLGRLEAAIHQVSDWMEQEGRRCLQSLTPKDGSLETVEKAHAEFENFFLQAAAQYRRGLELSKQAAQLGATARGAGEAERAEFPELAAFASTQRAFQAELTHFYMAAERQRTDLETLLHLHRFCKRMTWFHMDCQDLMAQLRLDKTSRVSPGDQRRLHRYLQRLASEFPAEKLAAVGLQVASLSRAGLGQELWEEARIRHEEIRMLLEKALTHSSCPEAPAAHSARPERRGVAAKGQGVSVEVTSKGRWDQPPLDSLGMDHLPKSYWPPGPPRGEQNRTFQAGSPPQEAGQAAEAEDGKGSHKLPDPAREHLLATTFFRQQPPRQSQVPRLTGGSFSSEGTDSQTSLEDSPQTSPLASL

Columns and labels:
Assay in all cases: log2 fold change, soluble protein after heating vs DMSO (PISA); higher = thermal stabilisation; K562 cells, 10 uM, 30 min; active = over 0.2 and 3.5 SD of the protein, either way, in both replicates (recomputed)
[1] = compound: C1=CC=C(C=C1)[C@H](COC2=CC3=C(C=C2)NC(=O)N3)NC(=O)C4=CC=CN(C4=O)CC5=CC(=C(C=C5)F)F
How it was run: (§1)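 Aliquots of K562 cells (2×10^6 cells/mL) treated with 10 μM compound for 30 min were heated for 3 min over 48°C-58°C. After pooling and extraction in PBS with 0.5% NP-40 at 4°C, soluble protein from a 21,000xg, 90 min spin was quantified by TMTpro 16plex LC-MS/MS with channel sums equalised. Thermal stability is expressed against control samples, from duplicates, as a log2 fold change.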

[2] = compound: CC1=C(SC2=C1C(=N[C@H](C3=NN=C(N32)C)CC(=O)N)C4=CC=C(C=C4)Cl)C
How it was run: as §1

[3] = compound: CC1=C2C(=CC=C1)N=C(N(C2=O)C3=CC=CC=C3C)CN4C=NC5=C(N=CN=C54)N
How it was run: as §1

[4] = compound: Cc1sc2c(c1C)C(c1ccc(Cl)cc1)=N[C@@H](CC(=O)OC(C)(C)C)c1nnc(C)n1-2
How it was run: as §1

[5] = compound: c1ccc([C@@H]2C[C@H]2NC2CCNCC2)cc1
How it was run: as §1

Row | Target | log2 fold change [1] | log2 fold change [2] | log2 fold change [3] | log2 fold change [4] | log2 fold change [5]
1 | KEL (UniProt P23276) | inactive: -0.067 | inactive: 0.003 | inactive: 0.017 | inactive: 0.019 | inactive: 0.067
2 | KMT2C isoform 3 (UniProt Q8NEZ4) | inactive: 0.032 | inactive: 0.04 | inactive: 0.017 | inactive: -0.076 | inactive: -0.001
3 | KIF15 (UniProt Q9NS87) | inactive: 0.155 | inactive: -0.155 | inactive: -0.122 | inactive: 0.043 | inactive: 0.012
4 | KDM1A isoform 2 (UniProt O60341) | inactive: -0.05 | inactive: 0 | inactive: 0.087 | inactive: -0.019 | active: 1.73
5 | KATNAL1 (UniProt Q9BW62) | inactive: 0.113 | inactive: -0.214 | inactive: 0.035 | inactive: -0.084 | inactive: -0.034
6 | KLC4 isoform 3 (UniProt Q9NSK0) | inactive: -0.052 | inactive: -0.032 | inactive: -0.03 | inactive: 0.027 | inactive: 0.018
7 | KPNA3 (UniProt O00505) | inactive: 0 | inactive: 0.01 | inactive: 0.08 | inactive: -0.032 | inactive: 0.006
8 | KIF21A isoform 4 (UniProt Q7Z4S6) | inactive: -0.003 | inactive: -0.024 | inactive: 0.061 | inactive: -0.077 | inactive: 0.014
9 | JAGN1 (UniProt Q8N5M9) | inactive: 0.031 | inactive: 0.135 | inactive: -0.018 | inactive: -0.109 | inactive: 0.027
10 | KHDRBS1 (UniProt Q07666) | inactive: -0.038 | inactive: -0.018 | inactive: -0.025 | inactive: 0.055 | inactive: -0.021
11 | KIAA0319L (UniProt Q8IZA0) | inactive: 0.013 | inactive: 0.003 | inactive: 0.026 | inactive: 0.011 | inactive: 0.03
12 | JMJD6 isoform 3 (UniProt Q6NYC1) | inactive: -0.004 | inactive: 0.046 | inactive: 0.055 | inactive: 0.006 | inactive: 0.097
13 | KIF2A isoform 4 (UniProt O00139) | inactive: 0.044 | inactive: -0.074 | inactive: -0.027 | inactive: 0.084 | inactive: 0.007
14 | KLF3 (UniProt P57682) | inactive: 0.08 | inactive: 0.211 | inactive: -0.065 | inactive: 0.086 | inactive: -0.013
15 | KCNH2 (UniProt Q12809) | inactive: 0.072 | inactive: 0.01 | inactive: 0.034 | inactive: 0.148 | inactive: 0.029
16 | KLHL11 (UniProt Q9NVR0) | inactive: -0.115 | inactive: 0.101 | inactive: 0.038 | inactive: -0.101 | inactive: -0.068
17 | KIF3B (UniProt O15066) | inactive: -0.068 | inactive: -0.014 | inactive: 0.028 | inactive: 0.09 | inactive: -0.054
18 | KPNA4 (UniProt O00629) | inactive: -0.017 | inactive: 0.004 | inactive: 0.035 | inactive: 0.004 | inactive: 0.009
19 | KRAS isoform 2 (UniProt P01116) | inactive: -0.002 | inactive: -0.065 | inactive: 0.096 | inactive: 0.005 | inactive: 0.053
20 | KIF1B isoform 4 (UniProt O60333) | inactive: -0.035 | inactive: 0.027 | inactive: 0.042 | inactive: -0.025 | inactive: -0.048
21 | JUNB (UniProt P17275) | inactive: -0.094 | inactive: 0.094 | inactive: 0.005 | inactive: 0.094 | inactive: 0.083
22 | ITPRIP (UniProt Q8IWB1) | inactive: -0.024 | inactive: 0.096 | inactive: 0.054 | inactive: -0.081 | inactive: 0.027
23 | KAT8 isoform 2 (UniProt Q9H7Z6) | inactive: -0.018 | inactive: -0.012 | inactive: -0.055 | inactive: -0.015 | inactive: 0.001
24 | KIAA1755 (UniProt Q5JYT7) | inactive: 0.007 | inactive: -0.017 | inactive: -0.011 | inactive: 0.034 | inactive: 0.012

Record cards, from the list above. Order of values: log2 fold change [1] | log2 fold change [2] | log2 fold change [3] | log2 fold change [4] | log2 fold change [5]
KHDRBS1 (UniProt Q07666) in the list: inactive: -0.038 | inactive: -0.018 | inactive: -0.025 | inactive: 0.055 | inactive: -0.021
KIF15 (UniProt Q9NS87) in the list: inactive: 0.155 | inactive: -0.155 | inactive: -0.122 | inactive: 0.043 | inactive: 0.012
